# The supplement of paper PMC11732987, “Enantioselective OTUD7B fragment discovery through chemoproteomics screening and high-throughput optimisation” (Communications Chemistry, 2025)
# Sequences of proteins named here, by UniProt entry; tags and fusion partners are left off. A change or cut given only in a name is not applied to a line headed by its entry. Residues count along the entry.
# UniProt Q9BQG0: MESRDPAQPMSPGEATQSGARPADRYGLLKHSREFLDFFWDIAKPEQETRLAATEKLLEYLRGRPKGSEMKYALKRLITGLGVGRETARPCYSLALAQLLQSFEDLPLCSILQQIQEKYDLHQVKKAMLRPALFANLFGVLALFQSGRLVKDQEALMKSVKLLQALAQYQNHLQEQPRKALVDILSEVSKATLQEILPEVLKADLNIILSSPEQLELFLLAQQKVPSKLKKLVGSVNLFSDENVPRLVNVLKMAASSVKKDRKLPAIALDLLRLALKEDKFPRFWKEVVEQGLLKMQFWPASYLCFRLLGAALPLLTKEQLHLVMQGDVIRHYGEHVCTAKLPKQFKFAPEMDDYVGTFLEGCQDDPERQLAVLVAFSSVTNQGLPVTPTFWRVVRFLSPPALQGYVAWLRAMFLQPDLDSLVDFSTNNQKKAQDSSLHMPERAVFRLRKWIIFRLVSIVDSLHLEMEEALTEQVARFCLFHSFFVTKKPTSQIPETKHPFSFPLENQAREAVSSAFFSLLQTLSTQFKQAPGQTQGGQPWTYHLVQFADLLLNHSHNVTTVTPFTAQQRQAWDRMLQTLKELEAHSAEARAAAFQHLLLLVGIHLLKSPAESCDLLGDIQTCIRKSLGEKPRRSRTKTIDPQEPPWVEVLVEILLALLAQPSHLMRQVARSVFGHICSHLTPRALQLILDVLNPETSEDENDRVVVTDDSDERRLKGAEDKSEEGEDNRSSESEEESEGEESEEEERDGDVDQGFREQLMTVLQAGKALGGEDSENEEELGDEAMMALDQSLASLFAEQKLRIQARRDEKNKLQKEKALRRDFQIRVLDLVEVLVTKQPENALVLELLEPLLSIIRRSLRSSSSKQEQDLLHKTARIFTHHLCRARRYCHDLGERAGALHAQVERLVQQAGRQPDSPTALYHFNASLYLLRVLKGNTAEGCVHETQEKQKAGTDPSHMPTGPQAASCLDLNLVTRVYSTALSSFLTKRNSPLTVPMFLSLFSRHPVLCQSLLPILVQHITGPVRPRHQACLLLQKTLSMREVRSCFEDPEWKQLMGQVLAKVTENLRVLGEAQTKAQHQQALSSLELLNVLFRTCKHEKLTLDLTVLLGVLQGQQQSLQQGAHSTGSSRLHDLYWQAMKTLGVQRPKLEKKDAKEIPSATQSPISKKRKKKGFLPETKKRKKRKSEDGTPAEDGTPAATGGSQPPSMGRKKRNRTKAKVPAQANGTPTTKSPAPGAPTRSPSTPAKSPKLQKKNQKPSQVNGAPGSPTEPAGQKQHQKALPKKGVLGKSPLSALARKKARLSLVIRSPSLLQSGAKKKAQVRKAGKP
# UniProt P35580, whole entry, looked up: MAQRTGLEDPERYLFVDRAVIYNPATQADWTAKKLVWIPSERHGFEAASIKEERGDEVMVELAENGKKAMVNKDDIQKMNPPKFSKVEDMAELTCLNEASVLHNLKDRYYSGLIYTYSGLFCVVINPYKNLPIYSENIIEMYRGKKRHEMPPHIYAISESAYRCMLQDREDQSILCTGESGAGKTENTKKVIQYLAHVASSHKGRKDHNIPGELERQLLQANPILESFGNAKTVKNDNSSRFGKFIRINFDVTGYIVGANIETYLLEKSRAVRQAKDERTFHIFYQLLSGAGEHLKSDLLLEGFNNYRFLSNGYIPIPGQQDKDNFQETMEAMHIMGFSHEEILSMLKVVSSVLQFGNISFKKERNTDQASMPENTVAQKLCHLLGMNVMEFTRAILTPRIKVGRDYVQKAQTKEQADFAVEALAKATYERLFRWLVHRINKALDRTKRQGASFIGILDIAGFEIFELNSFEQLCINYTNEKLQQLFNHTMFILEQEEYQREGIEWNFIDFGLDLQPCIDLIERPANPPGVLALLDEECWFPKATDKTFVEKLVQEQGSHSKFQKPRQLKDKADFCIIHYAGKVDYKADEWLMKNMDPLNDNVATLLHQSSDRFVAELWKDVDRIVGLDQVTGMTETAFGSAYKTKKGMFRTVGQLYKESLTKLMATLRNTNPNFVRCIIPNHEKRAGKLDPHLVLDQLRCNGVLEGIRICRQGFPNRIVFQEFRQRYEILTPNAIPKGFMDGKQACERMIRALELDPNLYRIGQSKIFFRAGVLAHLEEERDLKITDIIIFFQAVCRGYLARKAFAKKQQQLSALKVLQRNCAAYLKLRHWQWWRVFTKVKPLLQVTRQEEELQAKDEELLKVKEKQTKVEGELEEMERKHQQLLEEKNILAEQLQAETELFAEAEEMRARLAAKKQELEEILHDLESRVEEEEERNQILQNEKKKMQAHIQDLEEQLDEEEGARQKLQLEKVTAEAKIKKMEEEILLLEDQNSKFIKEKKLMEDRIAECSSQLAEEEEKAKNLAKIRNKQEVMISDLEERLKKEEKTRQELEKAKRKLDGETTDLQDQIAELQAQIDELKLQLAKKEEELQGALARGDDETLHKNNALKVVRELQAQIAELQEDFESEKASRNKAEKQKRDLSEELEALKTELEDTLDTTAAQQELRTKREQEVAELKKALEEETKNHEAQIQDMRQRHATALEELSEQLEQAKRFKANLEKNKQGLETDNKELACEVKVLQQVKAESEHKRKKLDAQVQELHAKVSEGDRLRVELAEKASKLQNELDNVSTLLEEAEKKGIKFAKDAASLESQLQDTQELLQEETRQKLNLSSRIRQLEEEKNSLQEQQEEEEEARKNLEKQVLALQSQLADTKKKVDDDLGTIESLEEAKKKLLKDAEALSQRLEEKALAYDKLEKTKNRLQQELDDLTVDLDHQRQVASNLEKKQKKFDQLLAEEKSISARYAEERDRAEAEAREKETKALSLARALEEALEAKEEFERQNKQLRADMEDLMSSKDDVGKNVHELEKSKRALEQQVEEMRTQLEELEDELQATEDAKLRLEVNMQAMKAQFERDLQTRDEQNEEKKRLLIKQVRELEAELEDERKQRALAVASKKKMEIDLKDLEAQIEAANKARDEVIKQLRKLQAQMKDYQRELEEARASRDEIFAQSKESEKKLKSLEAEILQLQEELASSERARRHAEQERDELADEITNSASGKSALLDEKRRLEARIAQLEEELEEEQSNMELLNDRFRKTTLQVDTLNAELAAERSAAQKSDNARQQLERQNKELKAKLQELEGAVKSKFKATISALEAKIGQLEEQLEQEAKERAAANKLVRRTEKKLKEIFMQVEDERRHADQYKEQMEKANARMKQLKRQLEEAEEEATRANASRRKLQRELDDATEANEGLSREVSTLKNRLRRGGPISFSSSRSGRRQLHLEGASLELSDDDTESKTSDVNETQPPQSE
# UniProt O43347, 1-21: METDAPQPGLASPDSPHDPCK
# UniProt Q12965: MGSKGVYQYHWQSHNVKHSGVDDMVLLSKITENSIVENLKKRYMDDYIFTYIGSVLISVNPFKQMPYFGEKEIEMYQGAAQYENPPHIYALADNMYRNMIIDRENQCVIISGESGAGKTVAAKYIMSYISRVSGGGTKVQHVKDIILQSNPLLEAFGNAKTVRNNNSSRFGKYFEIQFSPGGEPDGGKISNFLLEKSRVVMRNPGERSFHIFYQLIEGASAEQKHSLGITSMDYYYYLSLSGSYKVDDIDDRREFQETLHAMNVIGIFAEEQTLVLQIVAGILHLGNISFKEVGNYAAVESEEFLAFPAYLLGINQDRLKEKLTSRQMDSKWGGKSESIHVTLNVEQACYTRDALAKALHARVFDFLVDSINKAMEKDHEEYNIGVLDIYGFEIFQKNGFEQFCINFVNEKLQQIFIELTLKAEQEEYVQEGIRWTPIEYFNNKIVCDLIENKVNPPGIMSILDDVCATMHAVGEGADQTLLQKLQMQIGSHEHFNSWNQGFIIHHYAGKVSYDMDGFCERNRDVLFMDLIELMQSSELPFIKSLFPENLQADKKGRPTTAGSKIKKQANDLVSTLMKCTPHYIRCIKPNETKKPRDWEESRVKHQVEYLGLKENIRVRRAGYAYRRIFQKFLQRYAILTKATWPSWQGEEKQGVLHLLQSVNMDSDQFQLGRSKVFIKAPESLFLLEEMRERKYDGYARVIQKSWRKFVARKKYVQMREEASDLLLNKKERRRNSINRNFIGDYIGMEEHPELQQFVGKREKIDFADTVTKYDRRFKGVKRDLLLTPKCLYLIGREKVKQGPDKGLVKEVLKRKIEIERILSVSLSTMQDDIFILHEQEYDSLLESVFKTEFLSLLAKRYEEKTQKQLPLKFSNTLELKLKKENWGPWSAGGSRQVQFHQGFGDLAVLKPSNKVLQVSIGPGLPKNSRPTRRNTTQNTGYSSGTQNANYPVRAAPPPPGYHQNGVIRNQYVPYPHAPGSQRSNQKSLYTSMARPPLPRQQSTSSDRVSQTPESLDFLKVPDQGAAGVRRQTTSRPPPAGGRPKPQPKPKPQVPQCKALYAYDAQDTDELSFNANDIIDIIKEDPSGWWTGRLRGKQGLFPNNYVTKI
# UniProt Q6P1R3, 74-100: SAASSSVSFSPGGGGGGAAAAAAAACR
# UniProt Q13614: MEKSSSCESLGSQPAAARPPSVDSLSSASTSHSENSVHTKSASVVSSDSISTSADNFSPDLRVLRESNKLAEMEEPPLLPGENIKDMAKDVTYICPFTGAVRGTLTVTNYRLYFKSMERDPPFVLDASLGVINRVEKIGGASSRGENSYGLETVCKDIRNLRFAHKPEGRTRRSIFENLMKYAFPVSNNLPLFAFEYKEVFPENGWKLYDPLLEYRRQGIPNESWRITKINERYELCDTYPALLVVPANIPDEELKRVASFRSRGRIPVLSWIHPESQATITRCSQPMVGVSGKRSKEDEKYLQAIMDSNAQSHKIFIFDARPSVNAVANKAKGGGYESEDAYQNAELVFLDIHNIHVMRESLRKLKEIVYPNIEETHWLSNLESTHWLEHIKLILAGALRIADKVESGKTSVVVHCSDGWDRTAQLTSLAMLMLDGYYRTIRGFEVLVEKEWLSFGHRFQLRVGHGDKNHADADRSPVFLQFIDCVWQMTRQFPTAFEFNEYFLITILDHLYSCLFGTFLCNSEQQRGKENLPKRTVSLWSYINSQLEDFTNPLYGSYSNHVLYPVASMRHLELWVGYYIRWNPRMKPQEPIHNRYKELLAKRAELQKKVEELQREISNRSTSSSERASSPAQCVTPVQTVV
# UniProt Q15390: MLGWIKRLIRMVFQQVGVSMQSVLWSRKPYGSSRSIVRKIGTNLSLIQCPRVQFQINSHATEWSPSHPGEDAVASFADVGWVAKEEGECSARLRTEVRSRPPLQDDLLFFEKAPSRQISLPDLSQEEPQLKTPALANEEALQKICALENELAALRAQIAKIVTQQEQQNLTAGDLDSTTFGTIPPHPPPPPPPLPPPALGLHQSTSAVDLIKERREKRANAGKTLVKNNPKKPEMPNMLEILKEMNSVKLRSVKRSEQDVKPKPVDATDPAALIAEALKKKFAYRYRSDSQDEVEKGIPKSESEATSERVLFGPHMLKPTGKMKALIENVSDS
# UniProt Q6N069: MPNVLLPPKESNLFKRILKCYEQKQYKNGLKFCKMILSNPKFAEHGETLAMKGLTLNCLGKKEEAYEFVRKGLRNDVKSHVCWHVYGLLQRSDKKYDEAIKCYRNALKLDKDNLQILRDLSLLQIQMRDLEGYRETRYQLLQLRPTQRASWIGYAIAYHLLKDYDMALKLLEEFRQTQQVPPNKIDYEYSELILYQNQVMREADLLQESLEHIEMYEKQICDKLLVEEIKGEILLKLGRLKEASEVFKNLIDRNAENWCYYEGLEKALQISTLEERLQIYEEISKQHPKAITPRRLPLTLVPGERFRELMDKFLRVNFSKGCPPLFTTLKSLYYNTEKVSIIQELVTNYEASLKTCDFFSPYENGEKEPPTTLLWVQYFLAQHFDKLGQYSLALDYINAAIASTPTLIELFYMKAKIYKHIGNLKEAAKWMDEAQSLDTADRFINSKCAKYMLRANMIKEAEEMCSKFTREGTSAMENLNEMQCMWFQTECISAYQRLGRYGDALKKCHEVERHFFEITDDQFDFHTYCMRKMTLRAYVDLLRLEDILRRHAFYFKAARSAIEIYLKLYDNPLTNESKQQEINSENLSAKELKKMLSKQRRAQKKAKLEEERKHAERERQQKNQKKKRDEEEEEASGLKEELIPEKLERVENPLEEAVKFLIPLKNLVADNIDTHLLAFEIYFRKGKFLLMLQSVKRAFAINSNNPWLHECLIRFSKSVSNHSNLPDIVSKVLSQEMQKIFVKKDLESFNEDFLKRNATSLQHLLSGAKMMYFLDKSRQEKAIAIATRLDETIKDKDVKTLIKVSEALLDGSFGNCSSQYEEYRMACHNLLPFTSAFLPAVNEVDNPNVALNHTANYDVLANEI
# The list shows a part of the results. The data scatter; read single values as rough.
# Compound: ClCC(=O)N[C@H]1CCCc2ccccc12
# Test: log2 mean competition ratio of IA-DTB cysteine labelling (DMSO/compound) (log2 ratio); higher = stronger cysteine engagement by compound
# Details: 50 µM; treatment time: 4 h; cell line lysate: HEK293T
# Experimental: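 IA-DTB competitive cysteine chemoproteomics in HEK293T RIPA lysate. Lysates were treated with compound 29 or 30 at 50 or 200 µM for 4 h, then IA-DTB (500 µM, 1 h), trypsin-digested, NeutrAvidin-enriched and analysed by diaPASEF. Competition ratio = intensity DMSO / intensity compound (n=4 treated, n=64 DMSO); binding: mean log2 CR ≥ 1 and p ≤ 0.05 plus QC filters. Target is the cysteine site.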
row,Target,log2 mean competition ratio
1,MRPS6 C105 (UniProt P82932),-0.0296
2,MRPS2 C162 (UniProt Q9Y399),-0.121
3,MSH3 C847 (UniProt P20585),-0.275
4,MYBBP1A C338 (UniProt Q9BQG0),0.363
5,MYH10 C701 (UniProt P35580),-0.132
6,MYO6 C790 (UniProt Q9UM54),0.369
7,MTMR4 C637 (UniProt Q9NYA4),-0.262
8,MSH6 C765 (UniProt P52701),-0.0929
9,MSI1 C20 (UniProt O43347),-0.018
10,MRPS18A C118 (UniProt Q9NVS2),-0.0871
11,MYH10 C1011 (UniProt P35580),-0.524
12,MYCBP2 C1497 (UniProt O75592),0.684
13,MTO1 C104 (UniProt Q9Y2Z2),0.0121
14,MTOR C1660 (UniProt P42345),0.282
15,MYO1E C519 (UniProt Q12965),0.291
16,MRPL28 C154 (UniProt Q13084),0.0308
17,MTCH2 C79,-0.243
18,MSANTD2 C99 (UniProt Q6P1R3),0.166
19,NARS1 C438,-0.407

row,Target,log2 mean competition ratio
1,NAA25 C339 (UniProt Q14CX7),-0.0339
2,MTCH1 C385 (UniProt Q9NZJ7),0.489
3,MYH10 C1238 (UniProt P35580),-0.614
4,MTHFD1L C814,-0.493
5,MTA1 C281 (UniProt Q13330),-0.0902
6,MTMR2 C417 (UniProt Q13614),-0.486
7,MYO6 C587 (UniProt Q9UM54),0.489
8,MTG1 C113 (UniProt Q9BT17),-0.356
9,MTFR1 C145 (UniProt Q15390),0.238
10,MYBBP1A C942 (UniProt Q9BQG0),0.031
11,NAA16 C259 (UniProt Q6N069),0.598
12,MTM1 C113 (UniProt Q13496),-0.205
13,MYO9A C32 (UniProt B2RTY4),0.0716
14,MYO1D C97 (UniProt O94832),0.371
15,MYSM1 C822 (UniProt Q5VVJ2),-0.241
16,MTA2 C261 (UniProt O94776),0.153
17,MTOR C674 (UniProt P42345),-0.245
18,MSH3 C626 (UniProt P20585),0.501
19,MYH9 C1379 (UniProt P35579),-0.756

# Three entries picked at random from the list so far, as already listed:
row,Target,log2 mean competition ratio
8,MTG1 C113 (UniProt Q9BT17),-0.356
10,MYBBP1A C942 (UniProt Q9BQG0),0.031
12,MTM1 C113 (UniProt Q13496),-0.205
